Results are given in words; binding and its absence hold for the method and conditions named. Some results given as binding are weak or reduced against the parent protein; the word gives no strength.

The results in this text go back to publication doi:10.1101/596536.

Experiment [1] deals with Pl-TcdA1-D965A-R1971A (P. luminescens) (UniProt Q9RN43). Nature of the experiment: negative stain EM.
Experiment [2] concerns the target Pl-TcdA1-E158A-R1873A (P. luminescens) (UniProt Q9RN43). Nature of the experiment: negative stain EM.
In experiment [3] the target is Pl-TcdA1-E1086A-R1166A (P. luminescens) (UniProt Q9RN43). In words: negative stain EM.
In experiment [4] the target is Pl-TcdA1-H1202A (P. luminescens) (UniProt Q9RN43). Nature of the experiment: negative stain EM.
For experiment [5], the target named is Pl-TcdA1-Y1168F-Y1205F (P. luminescens) (UniProt Q9RN43). Nature of the experiment: negative stain EM.
The target in experiment [6] is TcdB2-TccC3 from Photorhabdus luminescens (Pl-TcdB2-TccC3) (P. luminescens) (UniProt Q8GF99). Nature of the experiment: SEC + other: negative stain EM.

For the substance “Pl-TcdA1-D965A-R1971A (from UniProt Q9RN43 1-2516)”, the binding result in experiment [1] is on record as “binds”.

In the case of “Pl-TcdA1-E158A-R1873A (from UniProt Q9RN43 1-2516)”, in experiment [2], the binding result is listed as “binds”. Turning to “Pl-TcdA1-E1086A-R1166A (from UniProt Q9RN43 1-2516)”, the binding result in experiment [3] was “binds”. Turning to “Pl-TcdA1-H1202A (from UniProt Q9RN43 1-2516)”, the binding entry in experiment [4] was “binds”.

Consider “Pl-TcdA1-Y1168F-Y1205F (from UniProt Q9RN43 1-2516)”, for which, in experiment [5], the binding entry is given as “binds”. As to “TcdA1 from Photorhabdus luminescens (Pl-TcdA1) (from UniProt Q9RN43 1-2516)”, the binding result in experiment [6] is given as “binds”.
